Assay results taken from the supplement of paper PMC10849652.
The list shows a part of the results.

The chains behind the UniProt entries cited, without tags or fusion partners. Where a name states a change or a piece, a line headed by the entry shows the natural chain unless it says otherwise.
UniProt Q14181: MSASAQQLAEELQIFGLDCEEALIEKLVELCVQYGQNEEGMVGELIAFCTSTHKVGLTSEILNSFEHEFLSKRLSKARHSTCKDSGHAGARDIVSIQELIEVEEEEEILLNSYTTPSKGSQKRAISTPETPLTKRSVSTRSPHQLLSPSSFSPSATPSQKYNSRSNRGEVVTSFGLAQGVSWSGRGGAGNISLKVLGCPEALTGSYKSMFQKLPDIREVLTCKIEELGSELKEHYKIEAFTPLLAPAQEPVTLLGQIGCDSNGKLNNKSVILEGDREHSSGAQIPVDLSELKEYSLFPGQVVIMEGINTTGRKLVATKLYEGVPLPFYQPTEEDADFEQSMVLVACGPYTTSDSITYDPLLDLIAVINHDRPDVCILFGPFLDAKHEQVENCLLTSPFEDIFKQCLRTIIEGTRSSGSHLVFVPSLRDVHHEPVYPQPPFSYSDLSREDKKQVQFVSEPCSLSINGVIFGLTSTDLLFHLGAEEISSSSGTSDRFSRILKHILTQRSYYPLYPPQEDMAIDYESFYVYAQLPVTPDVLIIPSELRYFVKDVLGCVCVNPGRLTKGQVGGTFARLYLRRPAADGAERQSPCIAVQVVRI
UniProt Q04941: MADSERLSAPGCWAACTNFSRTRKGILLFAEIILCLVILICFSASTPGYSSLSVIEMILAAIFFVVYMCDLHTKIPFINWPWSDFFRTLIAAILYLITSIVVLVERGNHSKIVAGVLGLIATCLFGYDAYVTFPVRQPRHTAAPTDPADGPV
UniProt O15305: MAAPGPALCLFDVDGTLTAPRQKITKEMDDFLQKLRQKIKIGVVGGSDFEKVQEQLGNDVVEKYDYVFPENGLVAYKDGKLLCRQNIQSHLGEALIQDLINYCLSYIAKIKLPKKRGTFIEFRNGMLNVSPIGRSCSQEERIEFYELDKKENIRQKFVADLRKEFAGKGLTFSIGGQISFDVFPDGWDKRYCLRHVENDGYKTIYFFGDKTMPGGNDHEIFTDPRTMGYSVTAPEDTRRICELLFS
UniProt Q9Y3C6: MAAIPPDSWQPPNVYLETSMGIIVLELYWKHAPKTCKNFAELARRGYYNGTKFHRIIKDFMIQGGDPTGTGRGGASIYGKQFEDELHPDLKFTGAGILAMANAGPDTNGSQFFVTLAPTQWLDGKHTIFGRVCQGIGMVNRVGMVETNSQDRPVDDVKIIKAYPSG
UniProt Q9NW08: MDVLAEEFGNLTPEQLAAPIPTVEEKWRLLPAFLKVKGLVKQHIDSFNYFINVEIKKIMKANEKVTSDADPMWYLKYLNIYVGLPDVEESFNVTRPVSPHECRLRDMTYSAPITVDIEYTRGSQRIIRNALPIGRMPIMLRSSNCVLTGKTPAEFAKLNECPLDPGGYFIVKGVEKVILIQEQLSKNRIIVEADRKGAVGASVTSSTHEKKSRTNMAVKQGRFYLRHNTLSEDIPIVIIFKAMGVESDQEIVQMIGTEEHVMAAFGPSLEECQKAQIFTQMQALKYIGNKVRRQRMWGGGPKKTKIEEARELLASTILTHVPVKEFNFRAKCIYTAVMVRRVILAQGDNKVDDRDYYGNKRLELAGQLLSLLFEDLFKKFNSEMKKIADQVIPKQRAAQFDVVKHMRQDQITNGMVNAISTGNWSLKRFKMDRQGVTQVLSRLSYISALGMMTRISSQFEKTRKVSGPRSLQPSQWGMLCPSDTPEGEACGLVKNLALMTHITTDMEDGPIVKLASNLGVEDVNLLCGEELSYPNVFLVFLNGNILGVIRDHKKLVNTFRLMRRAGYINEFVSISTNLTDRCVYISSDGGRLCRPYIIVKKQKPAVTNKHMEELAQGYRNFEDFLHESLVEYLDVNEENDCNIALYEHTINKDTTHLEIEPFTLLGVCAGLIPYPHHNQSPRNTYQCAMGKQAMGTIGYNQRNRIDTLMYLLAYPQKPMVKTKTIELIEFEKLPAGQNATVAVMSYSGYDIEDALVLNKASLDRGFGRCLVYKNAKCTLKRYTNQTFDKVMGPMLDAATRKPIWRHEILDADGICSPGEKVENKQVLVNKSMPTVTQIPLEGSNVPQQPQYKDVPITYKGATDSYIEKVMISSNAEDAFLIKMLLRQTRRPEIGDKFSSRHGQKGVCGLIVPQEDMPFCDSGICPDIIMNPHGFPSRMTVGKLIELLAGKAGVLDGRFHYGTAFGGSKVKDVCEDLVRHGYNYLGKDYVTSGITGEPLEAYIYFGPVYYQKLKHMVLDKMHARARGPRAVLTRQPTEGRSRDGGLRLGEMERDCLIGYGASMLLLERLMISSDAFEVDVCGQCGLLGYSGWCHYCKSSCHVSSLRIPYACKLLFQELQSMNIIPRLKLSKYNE
UniProt Q13356: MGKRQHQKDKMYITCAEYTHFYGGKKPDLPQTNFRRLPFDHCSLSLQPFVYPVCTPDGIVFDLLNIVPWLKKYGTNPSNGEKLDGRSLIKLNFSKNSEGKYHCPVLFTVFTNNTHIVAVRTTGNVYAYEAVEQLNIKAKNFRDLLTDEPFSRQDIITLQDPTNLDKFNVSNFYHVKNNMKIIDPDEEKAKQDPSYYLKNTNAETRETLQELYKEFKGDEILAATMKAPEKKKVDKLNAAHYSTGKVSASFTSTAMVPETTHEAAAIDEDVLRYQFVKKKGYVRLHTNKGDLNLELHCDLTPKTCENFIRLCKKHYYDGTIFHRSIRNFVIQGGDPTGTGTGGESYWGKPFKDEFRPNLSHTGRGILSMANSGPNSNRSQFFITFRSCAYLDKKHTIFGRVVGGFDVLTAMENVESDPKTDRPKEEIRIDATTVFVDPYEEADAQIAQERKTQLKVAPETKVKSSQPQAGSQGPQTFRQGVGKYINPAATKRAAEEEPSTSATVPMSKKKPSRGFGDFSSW
UniProt Q92871: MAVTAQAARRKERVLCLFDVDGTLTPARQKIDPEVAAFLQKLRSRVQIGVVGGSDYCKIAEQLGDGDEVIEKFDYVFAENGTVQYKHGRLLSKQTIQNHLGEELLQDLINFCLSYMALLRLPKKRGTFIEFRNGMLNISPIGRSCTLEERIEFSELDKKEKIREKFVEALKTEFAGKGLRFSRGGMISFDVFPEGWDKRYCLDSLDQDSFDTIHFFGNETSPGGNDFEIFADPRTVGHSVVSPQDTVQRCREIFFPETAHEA
UniProt Q08752, whole entry, looked up: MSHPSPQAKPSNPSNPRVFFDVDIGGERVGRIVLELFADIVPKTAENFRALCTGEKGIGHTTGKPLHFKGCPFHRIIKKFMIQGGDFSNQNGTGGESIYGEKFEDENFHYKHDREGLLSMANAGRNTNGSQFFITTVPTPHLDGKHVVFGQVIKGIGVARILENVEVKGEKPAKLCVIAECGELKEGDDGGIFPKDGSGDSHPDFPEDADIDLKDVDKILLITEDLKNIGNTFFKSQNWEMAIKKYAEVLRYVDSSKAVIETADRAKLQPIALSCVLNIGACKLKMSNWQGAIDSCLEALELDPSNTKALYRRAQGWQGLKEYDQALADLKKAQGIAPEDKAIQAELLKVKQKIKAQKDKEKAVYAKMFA
UniProt Q15054: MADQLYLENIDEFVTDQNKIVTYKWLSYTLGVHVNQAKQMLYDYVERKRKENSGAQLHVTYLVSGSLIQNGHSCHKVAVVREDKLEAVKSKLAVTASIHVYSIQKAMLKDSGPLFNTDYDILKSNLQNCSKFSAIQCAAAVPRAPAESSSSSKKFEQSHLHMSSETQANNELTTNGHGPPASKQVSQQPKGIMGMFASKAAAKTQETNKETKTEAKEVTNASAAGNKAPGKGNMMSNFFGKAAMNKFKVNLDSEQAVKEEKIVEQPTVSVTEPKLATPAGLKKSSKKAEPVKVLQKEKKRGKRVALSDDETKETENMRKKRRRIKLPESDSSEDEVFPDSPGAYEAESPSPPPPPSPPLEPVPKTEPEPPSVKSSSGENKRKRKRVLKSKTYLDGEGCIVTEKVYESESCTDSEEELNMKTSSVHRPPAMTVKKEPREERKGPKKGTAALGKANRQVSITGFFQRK
UniProt Q9H5K3: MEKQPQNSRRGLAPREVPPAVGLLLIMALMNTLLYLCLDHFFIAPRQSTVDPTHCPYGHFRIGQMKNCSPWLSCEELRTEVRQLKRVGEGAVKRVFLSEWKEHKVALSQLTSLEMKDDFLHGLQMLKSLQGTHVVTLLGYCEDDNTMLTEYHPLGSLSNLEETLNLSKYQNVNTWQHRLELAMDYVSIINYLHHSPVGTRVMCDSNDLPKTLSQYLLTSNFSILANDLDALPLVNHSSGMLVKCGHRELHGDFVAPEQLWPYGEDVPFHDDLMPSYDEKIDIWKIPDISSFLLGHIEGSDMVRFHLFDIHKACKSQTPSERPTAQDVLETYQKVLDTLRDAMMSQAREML
UniProt Q8NBL1: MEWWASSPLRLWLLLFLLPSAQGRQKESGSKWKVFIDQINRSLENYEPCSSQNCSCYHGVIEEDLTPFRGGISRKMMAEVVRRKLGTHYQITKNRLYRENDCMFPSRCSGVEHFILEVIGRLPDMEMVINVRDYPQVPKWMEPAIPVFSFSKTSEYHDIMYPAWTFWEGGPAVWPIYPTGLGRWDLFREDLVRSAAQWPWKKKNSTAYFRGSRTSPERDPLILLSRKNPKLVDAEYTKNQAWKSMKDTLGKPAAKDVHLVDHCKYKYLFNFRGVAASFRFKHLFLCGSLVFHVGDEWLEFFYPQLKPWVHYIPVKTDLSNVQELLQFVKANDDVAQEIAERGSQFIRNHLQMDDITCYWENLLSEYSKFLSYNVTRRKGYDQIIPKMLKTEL
UniProt Q9NR33: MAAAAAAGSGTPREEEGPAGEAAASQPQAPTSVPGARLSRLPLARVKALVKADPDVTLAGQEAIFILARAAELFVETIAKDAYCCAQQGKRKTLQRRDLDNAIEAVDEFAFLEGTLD
UniProt P28340: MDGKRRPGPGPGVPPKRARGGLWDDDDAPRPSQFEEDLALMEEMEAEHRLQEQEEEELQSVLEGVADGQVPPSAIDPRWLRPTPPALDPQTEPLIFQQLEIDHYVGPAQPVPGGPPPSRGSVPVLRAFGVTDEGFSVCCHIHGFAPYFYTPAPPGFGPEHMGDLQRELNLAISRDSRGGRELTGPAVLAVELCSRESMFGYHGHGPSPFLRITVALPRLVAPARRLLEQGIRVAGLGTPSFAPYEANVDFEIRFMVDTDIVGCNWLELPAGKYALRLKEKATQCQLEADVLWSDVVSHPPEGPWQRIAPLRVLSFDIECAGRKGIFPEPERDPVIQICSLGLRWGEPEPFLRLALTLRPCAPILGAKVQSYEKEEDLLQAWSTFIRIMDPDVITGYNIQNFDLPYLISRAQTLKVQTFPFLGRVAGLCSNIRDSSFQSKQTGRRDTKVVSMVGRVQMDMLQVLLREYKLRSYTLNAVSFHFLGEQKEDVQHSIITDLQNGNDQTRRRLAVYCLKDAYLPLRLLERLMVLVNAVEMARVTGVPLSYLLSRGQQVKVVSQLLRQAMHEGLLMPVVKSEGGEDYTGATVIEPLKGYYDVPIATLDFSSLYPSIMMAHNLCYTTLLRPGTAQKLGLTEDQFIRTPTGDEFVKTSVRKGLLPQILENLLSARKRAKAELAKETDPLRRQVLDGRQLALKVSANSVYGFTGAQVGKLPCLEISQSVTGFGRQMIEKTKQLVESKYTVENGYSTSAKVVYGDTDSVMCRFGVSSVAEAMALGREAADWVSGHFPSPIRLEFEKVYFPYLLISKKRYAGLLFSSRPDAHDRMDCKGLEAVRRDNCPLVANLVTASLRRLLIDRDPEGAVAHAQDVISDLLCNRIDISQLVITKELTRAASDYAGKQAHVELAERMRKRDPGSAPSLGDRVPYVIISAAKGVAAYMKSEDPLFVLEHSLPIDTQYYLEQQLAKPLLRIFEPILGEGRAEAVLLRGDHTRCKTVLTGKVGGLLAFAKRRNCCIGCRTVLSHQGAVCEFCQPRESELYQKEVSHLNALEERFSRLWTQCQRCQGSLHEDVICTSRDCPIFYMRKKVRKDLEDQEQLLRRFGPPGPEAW
UniProt Q9Y2Y1: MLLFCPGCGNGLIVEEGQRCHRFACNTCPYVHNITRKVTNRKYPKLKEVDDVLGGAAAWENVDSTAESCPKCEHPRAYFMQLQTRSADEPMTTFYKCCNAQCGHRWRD
UniProt Q99541: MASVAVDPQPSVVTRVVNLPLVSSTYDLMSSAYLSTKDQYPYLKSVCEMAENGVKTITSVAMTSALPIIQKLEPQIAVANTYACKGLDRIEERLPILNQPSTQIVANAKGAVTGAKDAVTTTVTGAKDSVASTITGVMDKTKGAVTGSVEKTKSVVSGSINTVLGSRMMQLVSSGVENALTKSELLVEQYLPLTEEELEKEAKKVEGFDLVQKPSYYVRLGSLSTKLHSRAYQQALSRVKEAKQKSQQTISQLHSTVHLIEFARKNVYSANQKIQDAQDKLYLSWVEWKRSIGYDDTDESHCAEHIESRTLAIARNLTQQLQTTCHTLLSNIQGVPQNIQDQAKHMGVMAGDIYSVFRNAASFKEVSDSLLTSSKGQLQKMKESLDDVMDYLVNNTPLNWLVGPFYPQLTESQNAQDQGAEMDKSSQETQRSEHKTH
UniProt P0DPB6, whole entry, looked up: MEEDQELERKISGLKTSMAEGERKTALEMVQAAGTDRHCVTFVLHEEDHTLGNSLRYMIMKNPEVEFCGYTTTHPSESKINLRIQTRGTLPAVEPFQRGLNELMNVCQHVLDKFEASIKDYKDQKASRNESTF

Assays:
Experiment in all cases: log2 fold change, soluble protein after heating vs DMSO (PISA); higher = thermal stabilisation; K562 cells, 10 uM, 30 min; active = over 0.2 and 3.5 SD of the protein, either way, in both replicates (recomputed)
[1] = compound: COC1=CC=C(C=C1)CN2C=CC3=C2C=C(C=C3)C(=O)NO
Procedure, shortened: (§1)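 Aliquots of K562 cells (2×10^6 cells/mL) treated with 10 μM compound for 30 min were heated for 3 min over 48°C-58°C. After pooling and extraction in PBS with 0.5% NP-40 at 4°C, soluble protein from a 21,000xg, 90 min spin was quantified by TMTpro 16plex LC-MS/MS with channel sums equalised. Thermal stability is expressed against control samples, from duplicates, as a log2 fold change.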

[2] = compound: CON(C)C(=O)N1N=C(c2cc(F)ccc2F)S[C@@]1(CCCN)c1ccccc1 [filanesib]
Procedure, shortened: as §1

[3] = compound: CO[C@H]1C[C@@H]2CC[C@@H](C)[C@@](O)(O2)C(=O)C(=O)N2CCCC[C@H]2C(=O)O[C@H]([C@H](C)C[C@@H]2CC[C@H](n3cnnn3)[C@H](OC)C2)CC(=O)[C@H](C)/C=C(\C)[C@@H](O)[C@@H](OC)C(=O)[C@H](C)C[C@H](C)/C=C/C=C/C=C/1C [zotarolimus]
Procedure, shortened: as §1

[4] = compound: COc1cc(C(=O)O)ccc1NC(=O)[C@@H]1N[C@@H](CC(C)(C)C)[C@](C#N)(c2ccc(Cl)cc2F)[C@H]1c1cccc(Cl)c1F [idasanutlin]
Procedure, shortened: as §1

[5] = compound: COc1cc(Nc2ncc3c(n2)-c2ccc(Cl)cc2C(c2c(F)cccc2OC)=NC3)ccc1C(=O)O [alisertib]
Procedure, shortened: as §1

[6] = compound: COc1cc2nc(-c3cc(F)ccc3O)nc(N[C@@H]3CNC[C@H]3C(C)(C)O)c2cc1OC
Procedure, shortened: as §1

[7] = compound: COc1cc2ncnc(Nc3ccc(F)c(Cl)c3)c2cc1OCCCN1CCOCC1 [gefitinib]
Procedure, shortened: as §1

[8] = compound: COc1cccc2cc(-c3nc([C@H]4CC[C@H](C(=O)O)CC4)n4ncnc(N)c34)[nH]c12
Procedure, shortened: as §1

[9] = compound: CS(=O)(=O)CCNCc1ccc(-c2ccc3ncnc(Nc4ccc(OCc5cccc(F)c5)c(Cl)c4)c3c2)o1 [lapatinib]
Procedure, shortened: as §1

[10] = compound: CS(=O)(=O)N1CCN(Cc2cc3nc(-c4cccc5[nH]ncc45)nc(N4CCOCC4)c3s2)CC1 [pictilisib]
Procedure, shortened: as §1

[11] = compound: CS(=O)(=O)c1ccc(-c2cnc(N)c(C(=O)Nc3ccccc3)n2)cc1
Procedure, shortened: as §1

[12] = compound: C[C@@H](Oc1cc(-c2cnn(C3CCNCC3)c2)cnc1N)c1c(Cl)ccc(F)c1Cl [crizotinib]
Procedure, shortened: as §1

[13] = compound: C[C@@H]1COCCN1C2=NC(=NC(=C2)C3(CC3)S(=O)(=O)C)C4=C5C=CNC5=CC=C4
Procedure, shortened: as §1

[14] = compound: C[C@H](C1=CC=C(C=C1)C(=O)NC2=C3C=CNC3=NC=C2)N
Procedure, shortened: as §1

[15] = compound: Cc1cc(Nc2cc(CN3CCOCC3)c3nc(C)c(Cc4ccc(Cl)cc4F)n3n2)n[nH]1 [gandotinib]
Procedure, shortened: as §1

[16] = compound: Cc1cc(SCc2sc(-c3ccc(C(F)(F)F)cc3)nc2C)ccc1OCC(=O)O
Procedure, shortened: as §1

[17] = compound: Cc1ccc(-n2nc(C(C)(C)C)cc2NC(=O)Nc2ccc(OCCN3CCOCC3)c3ccccc23)cc1 [doramapimod]
Procedure, shortened: as §1

[18] = compound: Cc1ccc(C(=O)N(CCCN)[C@@H](c2nc3cc(Cl)ccc3c(=O)n2Cc2ccccc2)C(C)C)cc1 [ispinesib]
Procedure, shortened: as §1

[19] = compound: C[C@H](Nc1ncnc2nc[nH]c12)c1cc2cccc(Cl)c2c(=O)n1-c1ccccc1 [duvelisib]
Procedure, shortened: as §1

[20] = compound: Cc1cc(Nc2cc(N3CCN(C)CC3)nc(Sc3ccc(NC(=O)C4CC4)cc3)n2)n[nH]1 [tozasertib]
Procedure, shortened: as §1

Target	log2 fold change [1]	log2 fold change [2]	log2 fold change [3]	log2 fold change [4]	log2 fold change [5]	log2 fold change [6]	log2 fold change [7]	log2 fold change [8]	log2 fold change [9]	log2 fold change [10]	log2 fold change [11]	log2 fold change [12]	log2 fold change [13]	log2 fold change [14]	log2 fold change [15]	log2 fold change [16]	log2 fold change [17]	log2 fold change [18]	log2 fold change [19]	log2 fold change [20]
POLA2 (UniProt Q14181)	inactive: 0.086	inactive: -0.001	inactive: 0.015	inactive: -0.02	inactive: 0.005	inactive: 0.046	inactive: 0	inactive: -0.015	inactive: 0.018	inactive: 0.051	inactive: 0.116	inactive: -0.026	inactive: 0.143	inactive: -0.036	active: -0.287	inactive: 0.047	inactive: -0.013	inactive: -0.028		
PLP2 (UniProt Q04941)	inactive: -0.057	inactive: 0.076	inactive: -0.033	inactive: 0.016	inactive: -0.188	inactive: -0.063	inactive: 0.147	inactive: 0.138	inactive: -0.019	inactive: -0.032	inactive: -0.024	inactive: 0.271	inactive: -0.201	inactive: -0.026	inactive: 0.045	inactive: -0.069	inactive: -0.097		inactive: -0.016	
POLR2G (UniProt P62487)	inactive: 0.039	inactive: -0.014	inactive: -0.046	inactive: -0.006	inactive: -0.054	inactive: 0.127	inactive: 0.001	inactive: 0.106	inactive: -0.022	inactive: 0.109	inactive: 0.006	inactive: 0.257	inactive: 0.111	inactive: 0.125	inactive: 0.191	inactive: -0.026	inactive: -0.016	inactive: 0.035		
PMM2 (UniProt O15305)	inactive: -0.054	inactive: -0.014	inactive: -0.01	inactive: 0.011	inactive: 0.009	inactive: 0.071	inactive: 0.016	inactive: 0.034	inactive: -0.088	inactive: -0.113	inactive: 0.006	inactive: 0.08	inactive: 0.013	inactive: 0.012	inactive: -0.045	inactive: -0.031	inactive: -0.015	inactive: 0.009		
PPIL1 (UniProt Q9Y3C6)	inactive: -0.079	inactive: 0.05	inactive: -0.008	inactive: -0.015	inactive: -0.078	inactive: 0.12	inactive: -0.023	inactive: -0.017	inactive: -0.051	inactive: -0.028	inactive: -0.029	inactive: 0.038	inactive: 0.018	inactive: 0.012	inactive: 0.045	inactive: 0.014	inactive: 0.031	inactive: -0.089		
POLR3B (UniProt Q9NW08)	inactive: 0.026	inactive: 0.065	inactive: 0.075	inactive: 0.008	inactive: -0.086	inactive: 0.08	inactive: 0.105	inactive: -0.135	inactive: 0.008	inactive: -0.019	inactive: 0.038	inactive: -0.111	inactive: -0.004	inactive: 0.034	inactive: -0.07	inactive: 0.085	inactive: 0.03	inactive: -0.183		
PPIL2 (UniProt Q13356)	inactive: 0.035	inactive: 0.012	inactive: 0.05	inactive: -0.032	inactive: 0.01	inactive: 0.131	inactive: 0.076	inactive: -0.023	inactive: -0.02	inactive: 0.028	inactive: 0.029	inactive: 0.027	inactive: 0.061	inactive: -0.012	inactive: -0.081	inactive: 0.131	inactive: -0.079	inactive: 0.037		
PMM1 (UniProt Q92871)	inactive: -0.084	inactive: 0.021	inactive: -0.003	inactive: 0.022	inactive: -0.039	inactive: 0.124	inactive: 0.16	inactive: 0.022	inactive: -0.02	inactive: -0.17	inactive: 0.051	inactive: 0.008	inactive: 0.032	inactive: 0.019	inactive: -0.075	inactive: -0.011	inactive: 0.027	inactive: 0.026		
PPID (UniProt Q08752)	inactive: 0.041	inactive: 0	inactive: 0.056	inactive: -0.055	inactive: -0.009	inactive: 0.093	inactive: 0.112	inactive: -0.091	inactive: -0.041	inactive: 0.039	inactive: 0.055	inactive: -0.102	inactive: 0.046	inactive: 0.071	inactive: -0.145	inactive: 0.088	inactive: 0.007	inactive: -0.08		
POLD3 (UniProt Q15054)	inactive: 0.002	inactive: -0.176	inactive: 0.123	inactive: -0.029	inactive: 0.002	inactive: -0.05	inactive: 0.066	inactive: 0.1	inactive: 0.098	inactive: 0.004	inactive: 0.177	inactive: -0.055	inactive: 0.155	inactive: -0.076	inactive: -0.049	inactive: 0.008	inactive: -0.012	inactive: -0.123		
POMK (UniProt Q9H5K3)	inactive: -0.025	inactive: -0.019	inactive: -0.101	inactive: -0.017	inactive: 0.077	inactive: -0.037	inactive: -0.02	inactive: 0.04	inactive: 0.067	inactive: 0.077	inactive: -0.013	inactive: -0.044	inactive: -0.034	inactive: 0.086	inactive: 0.027	inactive: 0.092	inactive: 0.108	inactive: -0.203		
POLR1A (UniProt O95602)	inactive: 0.248	inactive: 0.075	inactive: -0.05	inactive: 0.063	inactive: -0.076	inactive: -0.007	inactive: 0.037	inactive: -0.008	inactive: 0.069	inactive: 0.078	inactive: 0.076	inactive: -0.017	inactive: -0.116	inactive: 0.125	inactive: -0.03	inactive: 0.08	inactive: 0.141	inactive: -0.151		
POGLUT1 (UniProt Q8NBL1)	inactive: -0.086	inactive: 0.076	inactive: -0.004	inactive: 0.114	inactive: -0.051	inactive: 0.035	inactive: -0.046	inactive: -0.132	inactive: 0.036	inactive: -0.099	inactive: 0.064	inactive: 0.059	inactive: 0	inactive: 0.241	inactive: -0.011	inactive: 0.037	inactive: 0.029	inactive: 0.087		
POLE4 (UniProt Q9NR33)	inactive: -0.029	inactive: -0.005	inactive: 0.109	inactive: -0.078	inactive: 0.023	inactive: -0.156	inactive: -0.009	inactive: -0.012	inactive: 0.028	inactive: -0.032	inactive: 0.001	inactive: 0.149	inactive: 0.203	inactive: -0.202	inactive: 0.096		inactive: -0.029			inactive: 0.122
POLD1 (UniProt P28340)	inactive: 0.025	inactive: -0.038	inactive: 0.007	inactive: 0.024	inactive: -0.042	inactive: -0.006	inactive: 0.007	inactive: 0.047	inactive: 0.01	inactive: 0	inactive: 0.019	inactive: -0.042	inactive: 0.041	inactive: -0.025	inactive: 0.036	inactive: 0.046	inactive: -0.018	inactive: -0.01		
POLR3K (UniProt Q9Y2Y1)	inactive: -0.078	inactive: -0.03	inactive: -0.063	inactive: 0.006	inactive: -0.156	inactive: 0.01	inactive: -0.023	inactive: 0.044	inactive: 0.057	inactive: -0.04	inactive: -0.026	inactive: 0.015	inactive: 0.035	inactive: -0.027	inactive: 0.066	inactive: -0.059	inactive: 0.038	inactive: -0.075		
PLIN2 (UniProt Q99541)	inactive: -0.014	active: -0.44	inactive: -0.041	inactive: -0.107	inactive: 0.058	active: -0.891	inactive: 0.003	inactive: 0.028	inactive: -0.093	inactive: 0.023	inactive: -0.103	active: -0.841	inactive: 0.054	inactive: 0.03	inactive: -0.31	inactive: 0.031	inactive: -0.092	active: -2.6		
POLR1D (UniProt P0DPB6)	inactive: -0.049	inactive: 0.024	inactive: 0.007	inactive: 0.056	inactive: -0.102	inactive: -0.072	inactive: 0.03	inactive: -0.113	inactive: 0.103		inactive: 0.014	inactive: -0.058	inactive: -0.126	inactive: 0.054		inactive: 0.075	inactive: -0.011	inactive: -0.146	inactive: 0.05	inactive: 0.043

2 records drawn at random from the list so far, as already listed:
Target	log2 fold change [1]	log2 fold change [2]	log2 fold change [3]	log2 fold change [4]	log2 fold change [5]	log2 fold change [6]	log2 fold change [7]	log2 fold change [8]	log2 fold change [9]	log2 fold change [10]	log2 fold change [11]	log2 fold change [12]	log2 fold change [13]	log2 fold change [14]	log2 fold change [15]	log2 fold change [16]	log2 fold change [17]	log2 fold change [18]	log2 fold change [19]	log2 fold change [20]
POMK (UniProt Q9H5K3)	inactive: -0.025	inactive: -0.019	inactive: -0.101	inactive: -0.017	inactive: 0.077	inactive: -0.037	inactive: -0.02	inactive: 0.04	inactive: 0.067	inactive: 0.077	inactive: -0.013	inactive: -0.044	inactive: -0.034	inactive: 0.086	inactive: 0.027	inactive: 0.092	inactive: 0.108	inactive: -0.203		
PMM1 (UniProt Q92871)	inactive: -0.084	inactive: 0.021	inactive: -0.003	inactive: 0.022	inactive: -0.039	inactive: 0.124	inactive: 0.16	inactive: 0.022	inactive: -0.02	inactive: -0.17	inactive: 0.051	inactive: 0.008	inactive: 0.032	inactive: 0.019	inactive: -0.075	inactive: -0.011	inactive: 0.027	inactive: 0.026		
